No constants are given. Whether binding was seen depends on the method and setting. Binding seen in cells or lysates may run through a third protein. Some entries that bind do so weakly or less than the wild type. For part of these data: Sequences can lack the tags named with a protein. One block for each binder: values may come before it.
Columns and labels:
Flag-USP8 (full-length) = target: T1, Flag-USP8 (full-length) (UniProt P40818); experiment: co-IP; exogenous USP8 and OGT in 293 T (legend: HEK293) cells; which one was precipitated is not told
T1 sequence: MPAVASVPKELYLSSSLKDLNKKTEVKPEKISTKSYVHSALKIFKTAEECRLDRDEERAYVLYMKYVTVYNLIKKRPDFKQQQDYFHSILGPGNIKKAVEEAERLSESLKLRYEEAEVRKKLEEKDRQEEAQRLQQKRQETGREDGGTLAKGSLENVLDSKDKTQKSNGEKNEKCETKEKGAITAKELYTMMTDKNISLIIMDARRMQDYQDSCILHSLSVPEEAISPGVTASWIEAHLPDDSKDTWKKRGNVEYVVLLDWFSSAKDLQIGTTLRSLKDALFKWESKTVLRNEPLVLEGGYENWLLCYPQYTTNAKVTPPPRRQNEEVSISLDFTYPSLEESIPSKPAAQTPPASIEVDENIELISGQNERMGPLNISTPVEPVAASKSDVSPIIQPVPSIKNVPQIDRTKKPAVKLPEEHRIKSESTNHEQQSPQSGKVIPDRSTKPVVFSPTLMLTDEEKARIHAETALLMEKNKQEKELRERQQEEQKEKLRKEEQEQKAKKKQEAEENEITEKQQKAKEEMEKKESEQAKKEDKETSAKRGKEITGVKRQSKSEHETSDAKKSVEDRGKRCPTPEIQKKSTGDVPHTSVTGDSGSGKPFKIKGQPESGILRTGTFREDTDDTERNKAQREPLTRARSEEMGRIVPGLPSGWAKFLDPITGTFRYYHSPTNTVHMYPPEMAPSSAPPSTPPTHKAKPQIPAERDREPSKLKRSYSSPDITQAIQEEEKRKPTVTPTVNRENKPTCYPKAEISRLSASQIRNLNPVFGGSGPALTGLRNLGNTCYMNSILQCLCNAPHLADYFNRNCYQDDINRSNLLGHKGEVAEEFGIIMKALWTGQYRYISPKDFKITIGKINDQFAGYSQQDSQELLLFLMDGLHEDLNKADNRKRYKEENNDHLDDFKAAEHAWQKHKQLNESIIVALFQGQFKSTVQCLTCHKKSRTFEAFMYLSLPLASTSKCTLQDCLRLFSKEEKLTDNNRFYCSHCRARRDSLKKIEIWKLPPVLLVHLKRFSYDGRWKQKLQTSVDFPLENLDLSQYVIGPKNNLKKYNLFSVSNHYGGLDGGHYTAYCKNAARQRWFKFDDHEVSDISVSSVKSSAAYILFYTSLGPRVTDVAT

[1] = target: T2, Ubiquitin-specific peptidase 8 (USP8), endogenous (human (endogenous in HCCC9810 and RBE)) (UniProt P40818); experiment: co-IP; endogenous proteins in HCCC9810 and RBE lysate (IP lysis solution with protease inhibitors), precleared with rabbit IgG 4 h, overnight immunoprecipitation with USP8 or OGT antibody, western blot
T2 sequence: T1 sequence

Myc-OGT (full-length) = target: T3, Myc-OGT (full-length) (UniProt O15294); experiment: co-IP; HEK293 cells transfected with Flag-USP8 full-length or deletion mutants and 2 μg Myc-OGT, NP-40 lysis buffer after 24 h, Myc antibody for co-IP, Flag antibody for detection
T3 sequence: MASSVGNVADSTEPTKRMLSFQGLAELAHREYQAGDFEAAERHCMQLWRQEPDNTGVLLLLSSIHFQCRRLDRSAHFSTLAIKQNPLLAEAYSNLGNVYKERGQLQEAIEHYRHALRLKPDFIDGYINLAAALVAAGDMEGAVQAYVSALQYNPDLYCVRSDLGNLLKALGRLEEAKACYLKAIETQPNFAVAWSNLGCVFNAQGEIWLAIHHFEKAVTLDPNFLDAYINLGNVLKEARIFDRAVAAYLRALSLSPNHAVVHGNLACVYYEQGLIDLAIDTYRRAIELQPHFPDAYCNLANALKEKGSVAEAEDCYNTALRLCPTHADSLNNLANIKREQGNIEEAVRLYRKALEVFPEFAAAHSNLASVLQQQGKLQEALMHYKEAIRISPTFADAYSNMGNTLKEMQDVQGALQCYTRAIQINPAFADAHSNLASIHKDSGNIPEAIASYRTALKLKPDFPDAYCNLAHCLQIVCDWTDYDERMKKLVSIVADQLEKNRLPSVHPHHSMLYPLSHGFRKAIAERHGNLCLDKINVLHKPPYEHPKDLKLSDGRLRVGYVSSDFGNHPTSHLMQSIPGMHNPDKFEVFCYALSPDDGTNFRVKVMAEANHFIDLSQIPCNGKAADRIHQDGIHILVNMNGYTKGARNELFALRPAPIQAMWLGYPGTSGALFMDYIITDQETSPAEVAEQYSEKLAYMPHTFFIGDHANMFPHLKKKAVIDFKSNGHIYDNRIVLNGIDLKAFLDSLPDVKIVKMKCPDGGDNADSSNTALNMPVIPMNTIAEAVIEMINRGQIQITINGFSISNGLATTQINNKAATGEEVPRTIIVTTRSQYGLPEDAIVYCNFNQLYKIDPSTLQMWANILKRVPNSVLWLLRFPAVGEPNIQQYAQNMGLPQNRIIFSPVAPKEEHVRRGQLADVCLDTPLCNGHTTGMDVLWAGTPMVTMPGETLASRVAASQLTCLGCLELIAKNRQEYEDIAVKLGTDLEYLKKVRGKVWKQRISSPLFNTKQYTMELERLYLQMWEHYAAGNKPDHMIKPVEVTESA

binding (Flag-USP8 (full-length)): binds
B1: Myc-OGT (full-length) (enzyme, UniProt O15294 1-1046)
chain: T3 sequence

binding [1]: binds
B2: O-GlcNAc transferase (OGT), endogenous (enzyme, UniProt O15294 1-1046)
chain: T3 sequence

binding (Myc-OGT (full-length)): binds
B3: USP8 USP domain (USP8 715-1118), Flag-tagged deletion mutant (domain or fragment, UniProt P40818 715-1118)
chain: RSYSSPDITQAIQEEEKRKPTVTPTVNRENKPTCYPKAEISRLSASQIRNLNPVFGGSGPALTGLRNLGNTCYMNSILQCLCNAPHLADYFNRNCYQDDINRSNLLGHKGEVAEEFGIIMKALWTGQYRYISPKDFKITIGKINDQFAGYSQQDSQELLLFLMDGLHEDLNKADNRKRYKEENNDHLDDFKAAEHAWQKHKQLNESIIVALFQGQFKSTVQCLTCHKKSRTFEAFMYLSLPLASTSKCTLQDCLRLFSKEEKLTDNNRFYCSHCRARRDSLKKIEIWKLPPVLLVHLKRFSYDGRWKQKLQTSVDFPLENLDLSQYVIGPKNNLKKYNLFSVSNHYGGLDGGHYTAYCKNAARQRWFKFDDHEVSDISVSSVKSSAAYILFYTSLGPRVTDVAT

— publication PMC11229306
